Test results as given in publication PMC2263054, “Functional evolution of the vitamin D and pregnane X receptors” (BMC Evolutionary Biology, 2007).

Assays:
Type in all cases: cell-based
Settings in all cases: screening for activators, at least three concentrations of each drug
Sea lamprey VDR = molecular target: T1, Sea lamprey VDR (Petromyzon marinus, UniProt Q7ZZY9)
T1 sequence (Q7ZZY9 92-406): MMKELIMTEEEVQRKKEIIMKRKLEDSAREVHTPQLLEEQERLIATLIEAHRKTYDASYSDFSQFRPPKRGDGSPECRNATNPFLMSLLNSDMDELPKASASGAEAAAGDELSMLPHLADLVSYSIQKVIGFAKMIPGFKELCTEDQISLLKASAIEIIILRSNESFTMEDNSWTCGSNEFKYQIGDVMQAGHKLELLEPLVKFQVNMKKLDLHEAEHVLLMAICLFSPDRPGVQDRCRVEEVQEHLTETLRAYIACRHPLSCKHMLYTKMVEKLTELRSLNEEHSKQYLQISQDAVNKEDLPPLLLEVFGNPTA

Xenopus laevis VDR = molecular target: T2, Xenopus laevis VDR (Xenopus laevis, UniProt O13124); experiment: luciferase reporter transactivation assay in HepG2-NTCP cells, GAL4/xlVDR LBD chimera with tk-UAS-Luc
T2 sequence (O13124 90-422): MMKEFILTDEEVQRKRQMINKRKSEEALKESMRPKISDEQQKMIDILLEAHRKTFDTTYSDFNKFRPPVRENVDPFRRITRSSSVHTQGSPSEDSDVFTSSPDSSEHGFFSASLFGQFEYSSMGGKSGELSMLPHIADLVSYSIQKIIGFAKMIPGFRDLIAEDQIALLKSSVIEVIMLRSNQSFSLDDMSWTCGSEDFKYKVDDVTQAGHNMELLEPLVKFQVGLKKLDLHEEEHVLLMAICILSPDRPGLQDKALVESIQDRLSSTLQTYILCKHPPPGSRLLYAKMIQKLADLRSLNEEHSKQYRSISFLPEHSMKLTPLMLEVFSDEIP

Zebrafish VDR = molecular target: T3, Zebrafish VDR (Danio rerio, UniProt Q9PTN2); experiment: luciferase reporter transactivation assay in HepG2-NTCP cells, GAL4/zfVDR LBD chimera with tk-UAS-Luc
T3 sequence (Q9PTN2 121-453): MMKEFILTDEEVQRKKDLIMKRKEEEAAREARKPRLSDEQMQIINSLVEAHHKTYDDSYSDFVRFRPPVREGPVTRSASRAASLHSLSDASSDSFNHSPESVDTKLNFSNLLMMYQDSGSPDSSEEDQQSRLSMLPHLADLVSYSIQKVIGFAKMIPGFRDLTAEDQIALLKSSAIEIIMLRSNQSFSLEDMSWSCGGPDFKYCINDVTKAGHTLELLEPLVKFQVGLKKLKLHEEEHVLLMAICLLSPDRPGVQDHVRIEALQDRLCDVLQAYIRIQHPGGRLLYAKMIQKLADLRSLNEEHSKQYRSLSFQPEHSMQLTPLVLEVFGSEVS

COC(=O)C1=C(C)NC(C)=C(C(=O)OC)C1c1ccccc1[N+](=O)[O-] [Nifedipine]
No effect: Effect on sea lamprey VDR (Sea lamprey VDR) | Effect on Xenopus laevis VDR (Xenopus laevis VDR) | Effect on zebrafish VDR (Zebrafish VDR)
